The record followed here is patent EP4289863A9.

These are yes or no findings as the source states them, for the method shown. Binding calls can cover weak binding; strength is not graded here.

The target in the test is monkey IL-36R (monkey). The test is described as follows: flow cytometry on CHO-K1 cells expressing monkey IL-36R. (Flow cytometry measures light scatter and fluorescence of single cells or particles in a stream.)

B1: humanized anti-IL-36R antibody 900527 (antibody, V domains shown)
VH: QVQLVQSGAEVKKPGASVKVSCKASGYTFTSSWMHWAKQAPGQGLEWIGEIHPNSAKTNYNQKFQGRVTMTRDTSISTAYMELSRLRSDDTAVYYCARVDYGKPWFAYWGQGTLVTVSS
VL: QIVLTQSPGTLSLSPGERATLSCRASSSVSSSYLHWYQQKPGQAPRLWIYSTSSRATGIPDRFSGSGSGTDFTLTISRLEPEDFATYYCQQFQSSPLTFGQGTKLEIK
B1: the binding entry is “binds”.
